{"source": "paper PMC7924852", "about": "“The Emericellipsins A–E from an Alkalophilic Fungus Emericellopsis alkalina Show Potent Activity against Multidrug-Resistant Pathogenic Fungi” (Journal of Fungi, 2021)", "key": {"[1]": {"tested_on": "MCF-7 (breast cancer cell)", "assay": "MTT cytotoxicity assay", "format": "cell-based", "details": "Homo sapiens, MCF7, 72 h, three experiments, each in triplicate", "description": "(§1) Experiments for determining the cytotoxic activity of the compound in MTT assays were performed as previously described. The following tumor cell lines were used for this study: HCT-116 (colon cancer cell line), B16 (mouse melanoma cell line), K-562 (leukemia cell line), MDA-MB-231 (breast cancer line), and MCF-7 (breast cancer cell). Human postnatal fibroblasts were used as a normal cell line, and doxorubicin was used as a positive control. The cell lines were cultured in Dulbecco modified Eagle’s medium supplemented with 5% fetal calf serum, 2 mM Lglutamine, 100 U/mL penicillin, and […] streptomycin at 37 °C, 5% CO2 in a humidified atmosphere. Experiments were carried out on cells in the logarithmic phase of growth. The peptide was dissolved in DMSO as a 10 mM stock solution, followed by serial dilutions in water immediately before the experiment. Briefly, cells (5 × 10^3 in […] of culture medium) were plated in a 96-well plate and treated with 0.1% DMSO (blank control) or with […] of the peptide (0.10‒50 μM; each concentration in duplicate) for 72 h. […] Formazan was dissolved in DMSO, and the absorbance at 570 nm was measured. The cytotoxicity at a given EmiA concentration was calculated as the percentage of absorbance in wells with peptide-treated cells compared to that of blank control cells (100%). […]"}, "[2]": {"tested_on": "MDA-MB-231 (breast cancer line)", "assay": "MTT cytotoxicity assay", "format": "cell-based", "details": "Homo sapiens, 72 h, three experiments, each in triplicate", "description": "as §1"}}, "data": [{"smiles": "COc1cccc2c1C(=O)c1c(O)c3c(c(O)c1C2=O)C[C@@](O)(C(=O)CO)C[C@@H]3O[C@H]1C[C@H](N)[C@H](O)[C@H](C)O1", "note": "[Doxorubicin]", "values": [{"measurement": "IC50", "setting": "[1]", "value": "500 ± 60", "unit": "nM"}, {"measurement": "IC50", "setting": "[2]", "value": "800 ± 90", "unit": "nM"}]}]}
